No constants are given. Whether binding was seen depends on the method and setting. A result given as binding can be weak or reduced; the word gives no strength.
Target: T1, LexA-ADAP-C (aa 486-783), two-hybrid bait without active Fyn kinase (human) (UniProt O15117)
T1 sequence: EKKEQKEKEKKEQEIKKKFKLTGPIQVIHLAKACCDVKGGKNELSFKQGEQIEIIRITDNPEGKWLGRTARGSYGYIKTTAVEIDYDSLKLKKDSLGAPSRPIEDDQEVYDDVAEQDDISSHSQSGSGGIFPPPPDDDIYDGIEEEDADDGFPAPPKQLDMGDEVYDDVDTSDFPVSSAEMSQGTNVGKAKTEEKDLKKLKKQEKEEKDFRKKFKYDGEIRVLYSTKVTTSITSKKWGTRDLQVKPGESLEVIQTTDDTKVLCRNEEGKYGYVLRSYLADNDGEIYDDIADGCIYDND
Test: two-hybrid; LexA-ADAP-C bait without active Fyn kinase; Gal4-AD preys; growth on SD4

Chains of the proteins cited; added tags and fusions are not shown. Lines headed by an entry give the natural chain unless they say otherwise; changes in a name come on top.
UniProt P50552: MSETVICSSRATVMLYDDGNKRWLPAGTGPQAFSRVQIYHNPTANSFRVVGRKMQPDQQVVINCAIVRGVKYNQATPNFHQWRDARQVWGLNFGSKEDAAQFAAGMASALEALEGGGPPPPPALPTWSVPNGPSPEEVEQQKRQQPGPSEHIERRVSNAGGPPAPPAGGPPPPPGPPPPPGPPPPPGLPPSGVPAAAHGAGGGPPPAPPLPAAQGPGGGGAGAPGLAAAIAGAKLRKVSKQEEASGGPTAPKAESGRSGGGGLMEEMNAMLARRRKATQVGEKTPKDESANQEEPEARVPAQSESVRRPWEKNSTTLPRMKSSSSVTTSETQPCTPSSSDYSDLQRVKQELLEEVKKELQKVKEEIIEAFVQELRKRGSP

binding: binds
Substance: EVH1 domain of VASP, two-hybrid prey (from UniProt P50552) (domain or fragment)

From article PMC2908683
